Results as given in the supplement of paper PMC6411743.
± gives the standard deviation of the averaged measurements. The list shows a part of the results.

Sequences of proteins named here, by UniProt entry; tags and fusion partners are left off. A change or cut given only in a name is not applied to a line headed by its entry.
UniProt P36405: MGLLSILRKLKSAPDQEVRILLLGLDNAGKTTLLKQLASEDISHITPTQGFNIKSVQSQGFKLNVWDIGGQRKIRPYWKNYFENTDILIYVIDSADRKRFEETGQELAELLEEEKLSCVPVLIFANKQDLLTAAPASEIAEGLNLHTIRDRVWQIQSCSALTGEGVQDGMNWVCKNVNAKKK
UniProt P47224: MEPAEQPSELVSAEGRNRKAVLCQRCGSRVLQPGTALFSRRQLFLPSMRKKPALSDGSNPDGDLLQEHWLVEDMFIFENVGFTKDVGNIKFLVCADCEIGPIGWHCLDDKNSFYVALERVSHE
UniProt P49770: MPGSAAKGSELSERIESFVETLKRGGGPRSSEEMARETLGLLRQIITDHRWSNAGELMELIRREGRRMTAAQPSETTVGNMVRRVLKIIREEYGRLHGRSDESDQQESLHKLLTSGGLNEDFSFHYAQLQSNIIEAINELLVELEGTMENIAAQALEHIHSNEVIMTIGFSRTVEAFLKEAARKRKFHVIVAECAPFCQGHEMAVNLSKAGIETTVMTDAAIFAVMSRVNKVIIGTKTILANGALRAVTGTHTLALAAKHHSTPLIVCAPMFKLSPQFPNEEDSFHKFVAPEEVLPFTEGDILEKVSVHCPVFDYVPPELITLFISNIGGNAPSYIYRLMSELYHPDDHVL
UniProt P43487, whole entry: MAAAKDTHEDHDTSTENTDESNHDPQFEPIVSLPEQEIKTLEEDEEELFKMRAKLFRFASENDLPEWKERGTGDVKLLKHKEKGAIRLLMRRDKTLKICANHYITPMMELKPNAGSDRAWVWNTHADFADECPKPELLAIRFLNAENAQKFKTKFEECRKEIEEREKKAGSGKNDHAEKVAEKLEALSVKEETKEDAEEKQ
UniProt P49790, whole entry: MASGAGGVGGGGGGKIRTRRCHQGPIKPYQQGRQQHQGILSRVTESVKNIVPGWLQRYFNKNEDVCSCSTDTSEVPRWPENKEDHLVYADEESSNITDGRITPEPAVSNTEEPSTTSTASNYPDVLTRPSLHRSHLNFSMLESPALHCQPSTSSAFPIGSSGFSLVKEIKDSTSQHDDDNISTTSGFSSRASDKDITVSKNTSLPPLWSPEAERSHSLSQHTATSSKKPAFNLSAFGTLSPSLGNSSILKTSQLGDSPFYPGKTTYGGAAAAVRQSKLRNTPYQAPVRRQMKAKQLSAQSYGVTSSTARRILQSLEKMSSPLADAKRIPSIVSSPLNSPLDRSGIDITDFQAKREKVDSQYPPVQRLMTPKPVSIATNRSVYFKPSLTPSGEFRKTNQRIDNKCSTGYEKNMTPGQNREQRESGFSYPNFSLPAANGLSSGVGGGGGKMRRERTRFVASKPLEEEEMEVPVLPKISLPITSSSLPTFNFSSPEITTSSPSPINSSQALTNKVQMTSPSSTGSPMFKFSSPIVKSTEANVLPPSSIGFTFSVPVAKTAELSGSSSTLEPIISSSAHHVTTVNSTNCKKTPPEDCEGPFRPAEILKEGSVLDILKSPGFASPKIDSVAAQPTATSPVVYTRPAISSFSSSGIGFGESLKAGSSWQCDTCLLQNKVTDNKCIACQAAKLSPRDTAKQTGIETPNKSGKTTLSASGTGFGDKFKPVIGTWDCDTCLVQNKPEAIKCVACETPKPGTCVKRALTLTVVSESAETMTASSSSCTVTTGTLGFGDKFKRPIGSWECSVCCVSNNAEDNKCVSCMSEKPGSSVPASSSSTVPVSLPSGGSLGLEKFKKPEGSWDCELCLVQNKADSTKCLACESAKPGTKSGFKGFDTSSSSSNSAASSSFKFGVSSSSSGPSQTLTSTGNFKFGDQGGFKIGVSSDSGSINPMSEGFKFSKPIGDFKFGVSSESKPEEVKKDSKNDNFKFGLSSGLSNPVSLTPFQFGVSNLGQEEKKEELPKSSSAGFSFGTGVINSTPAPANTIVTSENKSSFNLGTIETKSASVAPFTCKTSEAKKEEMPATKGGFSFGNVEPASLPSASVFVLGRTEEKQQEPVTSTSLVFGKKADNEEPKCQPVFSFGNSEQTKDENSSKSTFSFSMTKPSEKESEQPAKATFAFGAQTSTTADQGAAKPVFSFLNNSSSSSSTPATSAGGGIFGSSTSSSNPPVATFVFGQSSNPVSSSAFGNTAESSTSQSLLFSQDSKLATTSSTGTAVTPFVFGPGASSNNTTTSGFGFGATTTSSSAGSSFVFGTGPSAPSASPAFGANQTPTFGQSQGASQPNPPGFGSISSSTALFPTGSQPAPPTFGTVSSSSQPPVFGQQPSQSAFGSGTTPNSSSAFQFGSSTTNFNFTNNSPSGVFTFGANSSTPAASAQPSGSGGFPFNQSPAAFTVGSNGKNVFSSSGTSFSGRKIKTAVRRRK
UniProt P49748: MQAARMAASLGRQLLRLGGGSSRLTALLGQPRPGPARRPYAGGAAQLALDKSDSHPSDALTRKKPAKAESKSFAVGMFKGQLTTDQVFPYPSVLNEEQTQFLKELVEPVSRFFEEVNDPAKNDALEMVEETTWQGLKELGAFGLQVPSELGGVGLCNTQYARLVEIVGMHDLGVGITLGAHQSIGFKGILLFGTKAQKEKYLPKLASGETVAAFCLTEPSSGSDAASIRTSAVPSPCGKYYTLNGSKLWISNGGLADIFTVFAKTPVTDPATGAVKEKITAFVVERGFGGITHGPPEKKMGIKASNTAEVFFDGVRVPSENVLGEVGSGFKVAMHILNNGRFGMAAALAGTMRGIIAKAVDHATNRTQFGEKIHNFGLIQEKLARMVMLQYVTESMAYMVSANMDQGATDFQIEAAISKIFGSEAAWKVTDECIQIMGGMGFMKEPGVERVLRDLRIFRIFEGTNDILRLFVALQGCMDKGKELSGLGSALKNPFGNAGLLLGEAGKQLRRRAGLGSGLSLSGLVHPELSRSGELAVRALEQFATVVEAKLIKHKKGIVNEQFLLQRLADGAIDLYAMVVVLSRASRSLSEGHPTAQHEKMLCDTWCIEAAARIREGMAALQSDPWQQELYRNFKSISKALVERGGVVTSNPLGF
UniProt P31153, whole entry, looked up: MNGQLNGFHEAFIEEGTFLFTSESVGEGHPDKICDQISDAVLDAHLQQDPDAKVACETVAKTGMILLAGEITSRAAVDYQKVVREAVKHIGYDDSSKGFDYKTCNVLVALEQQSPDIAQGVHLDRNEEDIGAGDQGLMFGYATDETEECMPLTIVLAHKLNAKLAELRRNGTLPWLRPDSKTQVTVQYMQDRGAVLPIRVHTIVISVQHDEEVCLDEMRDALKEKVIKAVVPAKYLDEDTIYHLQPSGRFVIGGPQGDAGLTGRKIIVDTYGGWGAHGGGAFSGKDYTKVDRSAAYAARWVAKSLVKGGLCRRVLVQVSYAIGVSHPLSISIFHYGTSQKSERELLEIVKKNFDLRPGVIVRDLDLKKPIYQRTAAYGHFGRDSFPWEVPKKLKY
UniProt P30419: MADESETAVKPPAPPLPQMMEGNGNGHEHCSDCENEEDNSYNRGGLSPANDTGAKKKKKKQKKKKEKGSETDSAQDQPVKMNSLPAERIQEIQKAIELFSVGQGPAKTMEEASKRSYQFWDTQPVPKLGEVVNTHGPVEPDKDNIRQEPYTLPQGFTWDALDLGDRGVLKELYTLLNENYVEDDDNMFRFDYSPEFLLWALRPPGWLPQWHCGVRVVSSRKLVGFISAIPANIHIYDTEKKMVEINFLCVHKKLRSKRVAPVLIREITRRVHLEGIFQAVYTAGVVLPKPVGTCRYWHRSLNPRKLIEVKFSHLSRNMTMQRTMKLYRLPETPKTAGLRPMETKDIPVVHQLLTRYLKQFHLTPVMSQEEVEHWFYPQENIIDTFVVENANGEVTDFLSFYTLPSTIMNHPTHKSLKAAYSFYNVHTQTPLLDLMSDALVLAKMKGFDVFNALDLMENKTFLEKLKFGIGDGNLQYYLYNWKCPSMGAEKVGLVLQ
UniProt P49366: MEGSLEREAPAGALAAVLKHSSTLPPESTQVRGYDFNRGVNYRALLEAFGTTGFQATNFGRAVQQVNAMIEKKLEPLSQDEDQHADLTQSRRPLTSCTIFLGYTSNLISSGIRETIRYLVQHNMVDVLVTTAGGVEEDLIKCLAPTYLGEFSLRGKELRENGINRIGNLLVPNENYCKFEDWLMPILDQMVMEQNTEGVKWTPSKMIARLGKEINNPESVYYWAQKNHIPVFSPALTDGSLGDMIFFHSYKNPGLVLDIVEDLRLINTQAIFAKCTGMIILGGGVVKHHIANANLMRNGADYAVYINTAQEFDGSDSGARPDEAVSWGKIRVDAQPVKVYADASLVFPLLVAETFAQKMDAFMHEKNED
UniProt P32121, whole entry: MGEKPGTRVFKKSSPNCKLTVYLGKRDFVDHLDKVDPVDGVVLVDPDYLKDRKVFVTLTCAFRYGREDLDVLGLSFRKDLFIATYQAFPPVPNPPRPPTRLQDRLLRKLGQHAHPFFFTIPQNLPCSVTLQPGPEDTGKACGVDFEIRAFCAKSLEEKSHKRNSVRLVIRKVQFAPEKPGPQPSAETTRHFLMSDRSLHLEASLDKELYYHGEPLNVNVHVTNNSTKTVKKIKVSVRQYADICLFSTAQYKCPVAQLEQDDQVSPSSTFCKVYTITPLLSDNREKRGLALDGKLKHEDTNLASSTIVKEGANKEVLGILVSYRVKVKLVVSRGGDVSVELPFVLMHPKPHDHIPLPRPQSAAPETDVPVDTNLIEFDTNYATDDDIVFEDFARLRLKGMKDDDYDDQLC
UniProt P29084: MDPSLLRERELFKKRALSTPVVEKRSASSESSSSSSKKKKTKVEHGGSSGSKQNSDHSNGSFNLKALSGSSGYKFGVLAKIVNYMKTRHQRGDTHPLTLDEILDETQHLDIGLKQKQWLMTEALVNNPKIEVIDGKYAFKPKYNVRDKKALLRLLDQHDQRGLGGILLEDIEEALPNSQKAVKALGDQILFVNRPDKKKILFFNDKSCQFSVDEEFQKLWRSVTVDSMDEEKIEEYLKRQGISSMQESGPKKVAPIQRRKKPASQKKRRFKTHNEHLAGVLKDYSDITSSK
UniProt P35240: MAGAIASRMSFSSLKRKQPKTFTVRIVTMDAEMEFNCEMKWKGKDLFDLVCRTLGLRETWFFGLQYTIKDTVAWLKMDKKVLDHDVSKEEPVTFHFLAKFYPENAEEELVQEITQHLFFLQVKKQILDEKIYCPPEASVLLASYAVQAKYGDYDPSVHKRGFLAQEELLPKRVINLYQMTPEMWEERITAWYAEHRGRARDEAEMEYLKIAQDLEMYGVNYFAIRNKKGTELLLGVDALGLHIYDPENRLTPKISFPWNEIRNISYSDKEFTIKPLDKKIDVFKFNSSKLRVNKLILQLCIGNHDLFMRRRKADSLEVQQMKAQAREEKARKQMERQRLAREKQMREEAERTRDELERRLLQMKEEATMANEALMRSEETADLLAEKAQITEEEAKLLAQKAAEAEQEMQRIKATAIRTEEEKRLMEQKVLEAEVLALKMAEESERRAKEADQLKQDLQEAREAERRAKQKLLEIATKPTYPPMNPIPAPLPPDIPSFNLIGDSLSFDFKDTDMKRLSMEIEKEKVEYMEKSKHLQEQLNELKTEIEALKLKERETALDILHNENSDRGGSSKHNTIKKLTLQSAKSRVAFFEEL
UniProt P30043: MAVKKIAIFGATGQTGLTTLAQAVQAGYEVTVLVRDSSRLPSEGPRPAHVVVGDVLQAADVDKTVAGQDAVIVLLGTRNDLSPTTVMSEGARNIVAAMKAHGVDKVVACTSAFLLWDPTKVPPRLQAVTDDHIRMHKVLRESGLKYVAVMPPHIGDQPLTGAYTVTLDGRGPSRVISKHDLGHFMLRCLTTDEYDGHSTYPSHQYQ
UniProt P30520: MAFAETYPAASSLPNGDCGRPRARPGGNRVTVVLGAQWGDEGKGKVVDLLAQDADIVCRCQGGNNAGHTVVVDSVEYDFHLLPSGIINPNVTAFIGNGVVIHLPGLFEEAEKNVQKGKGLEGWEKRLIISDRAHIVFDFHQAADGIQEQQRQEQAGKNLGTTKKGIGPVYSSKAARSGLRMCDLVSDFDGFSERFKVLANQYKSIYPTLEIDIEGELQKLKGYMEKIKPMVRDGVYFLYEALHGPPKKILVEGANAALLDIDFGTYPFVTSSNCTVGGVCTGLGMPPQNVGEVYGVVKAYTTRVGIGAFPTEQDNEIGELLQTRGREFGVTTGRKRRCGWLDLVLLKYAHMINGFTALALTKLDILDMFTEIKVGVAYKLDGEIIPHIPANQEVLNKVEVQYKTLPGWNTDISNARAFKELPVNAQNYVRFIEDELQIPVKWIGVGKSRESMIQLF
UniProt P43897: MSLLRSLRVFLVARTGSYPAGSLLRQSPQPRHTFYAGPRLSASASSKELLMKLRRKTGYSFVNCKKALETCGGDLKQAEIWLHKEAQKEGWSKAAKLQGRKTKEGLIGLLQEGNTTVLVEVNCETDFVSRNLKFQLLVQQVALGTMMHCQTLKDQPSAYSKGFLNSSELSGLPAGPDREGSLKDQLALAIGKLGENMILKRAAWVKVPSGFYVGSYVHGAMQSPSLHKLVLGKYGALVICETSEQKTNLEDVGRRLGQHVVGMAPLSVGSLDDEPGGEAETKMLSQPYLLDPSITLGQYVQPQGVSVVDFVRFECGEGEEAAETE

Compound: Nc1nc2c(ncn2[C@@H]2O[C@H](COP(=O)(O)OP(=O)(O)OP(=O)(O)O)[C@@H](O)[C@H]2O)c(=O)[nH]1 [guanosine triphosphate]
Experiment: NP40-soluble protein abundance relative to vehicle (solubility fold change) (ratio); higher = more soluble protein in presence of GTP
How it was run: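 Across three independent experiments, values are fold changes against the detergent-processed vehicle for each replicate, based on vsn-normalised intensities. The samples were Jurkat crude lysate treated with eight concentrations (0.1 to 10 mM) for 10 min at room temperature and then 3 min at 37 °C. Lysate was solubilised with 0.8% NP40 and benzonase, ultracentrifuged, and the supernatant analysed by TMT-labelled LC-MS/MS.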

Target | NP40-soluble protein abundance (concentration: 0.1mM) | NP40-soluble protein abundance (concentration: 0.5mM) | NP40-soluble protein abundance (concentration: 1mM) | NP40-soluble protein abundance (concentration: 2mM) | NP40-soluble protein abundance (concentration: 4mM) | NP40-soluble protein abundance (concentration: 6mM) | NP40-soluble protein abundance (concentration: 8mM) | NP40-soluble protein abundance (concentration: 10mM)
RPL4 (UniProt P36578) | 1.03 ± 0.079 | 1.06 ± 0.093 | 1.08 ± 0.16 | 1.05 ± 0.23 | 0.96 ± 0.28 | 0.876 ± 0.23 | 0.692 ± 0.2 | 0.897 ± 0.24
ARL3 (UniProt P36405) | 0.956 ± 0.022 | 0.94 ± 0.045 | 0.891 ± 0.023 | 0.883 ± 0.063 | 0.868 ± 0.024 | 0.882 ± 0.017 | 0.838 ± 0.022 | 0.838 ± 0.036
UniProt P49590 and related entries | 1.34 ± 0.43 | 1.11 ± 0.055 | 1.04 ± 0.03 | 1.16 ± 0.15 | 1.02 ± 0.024 | 0.997 ± 0.056 | 1.05 ± 0.028 | 0.984 ± 0.1
RABIF (UniProt P47224) | 0.947 ± 0.14 | 0.919 ± 0.065 | 0.897 ± 0.092 | 0.897 ± 0.074 | 0.897 ± 0.13 | 0.856 ± 0.1 | 0.829 ± 0.13 | 0.868 ± 0.11
SOAT1 (UniProt P35610) | 0.915 ± 0.071 | 0.993 ± 0.042 | 0.909 ± 0.071 | 0.947 ± 0.014 | 0.916 ± 0.049 | 0.917 ± 0.034 | 0.863 ± 0.088 | 0.905 ± 0.055
EIF2B2 (UniProt P49770) | 1.05 ± 0.03 | 0.981 ± 0.029 | 0.966 ± 0.051 | 1 ± 0.078 | 1 ± 0.075 | 0.981 ± 0.076 | 0.944 ± 0.017 | 0.932 ± 0.046
UniProt P30048 and related entries | 0.968 ± 0.038 | 0.9589 ± 0.0063 | 0.945 ± 0.057 | 0.899 ± 0.03 | 0.894 ± 0.054 | 0.89 ± 0.025 | 0.875 ± 0.038 | 0.839 ± 0.036
UniProt P45974 and related entries | 1 ± 0.052 | 0.989 ± 0.047 | 0.992 ± 0.04 | 0.94 ± 0.038 | 0.931 ± 0.051 | 0.924 ± 0.046 | 0.941 ± 0.065 | 0.897 ± 0.062
UniProt P38159 and related entries | 1.02 ± 0.048 | 1.02 ± 0.027 | 1.18 ± 0.036 | 1.29 ± 0.043 | 1.47 ± 0.052 | 1.65 ± 0.1 | 1.8 ± 0.15 | 2.04 ± 0.32
UniProt P43487 and related entries | 0.858 ± 0.039 | 0.885 ± 0.043 | 0.952 ± 0.076 | 0.932 ± 0.02 | 0.871 ± 0.095 | 0.979 ± 0.081 | 0.938 ± 0.061 | 1.07 ± 0.016
UniProt P40855 and related entries | 0.979 ± 0.047 | 0.929 ± 0.06 | 1.05 ± 0.059 | 1.03 ± 0.083 | 1 ± 0.056 | 1 ± 0.079 | 1.03 ± 0.073 | 1.14 ± 0.021
UniProt P40937 and related entries | 1.03 ± 0.011 | 1.08 ± 0.027 | 1.09 ± 0.029 | 1.14 ± 0.059 | 1.18 ± 0.043 | 1.19 ± 0.061 | 1.16 ± 0.055 | 1.18 ± 0.052
UniProt P33981 and related entries | 1.04 ± 0.03 | 1.02 ± 0.066 | 1.07 ± 0.064 | 1.03 ± 0.054 | 1.04 ± 0.045 | 1.04 ± 0.033 | 1.13 ± 0.072 | 1.05 ± 0.012
NUP153 (UniProt P49790) | 1.01 ± 0.02 | 1.03 ± 0.028 | 1.03 ± 0.012 | 1.04 ± 0.033 | 1.05 ± 0.013 | 1.09 ± 0.022 | 1.14 ± 0.055 | 1.17 ± 0.043
UniProt P50213 and related entries | 0.968 ± 0.016 | 0.954 ± 0.011 | 0.923 ± 0.026 | 0.908 ± 0.029 | 0.909 ± 0.027 | 0.897 ± 0.023 | 0.87 ± 0.07 | 0.85 ± 0.052
UniProt P49748 and related entries | 1.03 ± 0.025 | 1.03 ± 0.031 | 0.93 ± 0.018 | 0.931 ± 0.066 | 0.932 ± 0.036 | 0.899 ± 0.054 | 0.89 ± 0.019 | 0.861 ± 0.057
P42166 and related entries (UniProt P42167+P42166) | 0.949 ± 0.034 | 0.973 ± 0.039 | 1.02 ± 0.037 | 1.01 ± 0.067 | 1.01 ± 0.053 | 1.02 ± 0.057 | 1.03 ± 0.062 | 1.05 ± 0.063
MAT2A (UniProt P31153) | 0.994 ± 0.037 | 1.03 ± 0.067 | 0.914 ± 0.034 | 0.905 ± 0.068 | 0.892 ± 0.053 | 0.92 ± 0.045 | 0.891 ± 0.013 | 0.862 ± 0.039
NMT1 (UniProt P30419) | 1.08 ± 0.027 | 1.041 ± 0.0069 | 1.02 ± 0.043 | 1.04 ± 0.052 | 1.1 ± 0.086 | 1.09 ± 0.061 | 1.09 ± 0.089 | 1.09 ± 0.099
UniProt P49366 and related entries | 0.949 ± 0.078 | 0.958 ± 0.056 | 0.951 ± 0.069 | 0.913 ± 0.075 | 0.918 ± 0.07 | 0.92 ± 0.056 | 0.889 ± 0.086 | 0.894 ± 0.079
UniProt P42331 and related entries | 1.037 ± 0.002 | 1.03 ± 0.029 | 1.01 ± 0.065 | 1.01 ± 0.06 | 0.966 ± 0.051 | 0.982 ± 0.049 | 0.979 ± 0.023 | 0.967 ± 0.066
RPL3 (UniProt P39023) | 1 ± 0.11 | 1.05 ± 0.2 | 0.979 ± 0.18 | 0.983 ± 0.27 | 0.905 ± 0.25 | 0.894 ± 0.23 | 0.776 ± 0.13 | 0.915 ± 0.21
UniProt P32121 and related entries | 1.02 ± 0.026 | 1.03 ± 0.028 | 0.971 ± 0.022 | 0.982 ± 0.048 | 0.972 ± 0.04 | 0.946 ± 0.053 | 0.95 ± 0.059 | 0.95 ± 0.088
GTF2E2 (UniProt P29084) | 0.969 ± 0.013 | 0.975 ± 0.063 | 1.02 ± 0.058 | 0.977 ± 0.09 | 0.971 ± 0.095 | 1.01 ± 0.087 | 1.03 ± 0.088 | 1.04 ± 0.08
UniProt P35268 and related entries | 0.964 ± 0.022 | 0.99 ± 0.046 | 0.959 ± 0.037 | 1 ± 0.035 | 0.99 ± 0.088 | 1.02 ± 0.075 | 0.954 ± 0.0096 | 1.08 ± 0.051
UniProt P35240 and related entries | 0.912 ± 0.09 | 0.926 ± 0.1 | 0.901 ± 0.12 | 0.876 ± 0.16 | 0.839 ± 0.15 | 0.911 ± 0.11 | 0.851 ± 0.06 | 0.896 ± 0.11
TAGLN2 (UniProt P37802) | 0.929 ± 0.035 | 0.894 ± 0.036 | 0.926 ± 0.062 | 0.934 ± 0.038 | 0.898 ± 0.069 | 0.892 ± 0.028 | 0.901 ± 0.082 | 0.996 ± 0.055
BLVRB (UniProt P30043) | 1.02 ± 0.022 | 0.991 ± 0.023 | 0.9141 ± 0.0059 | 0.941 ± 0.035 | 0.956 ± 0.046 | 0.895 ± 0.067 | 0.895 ± 0.1 | 0.901 ± 0.1
UniProt P30520 | 0.969 ± 0.018 | 0.959 ± 0.025 | 0.964 ± 0.035 | 0.902 ± 0.043 | 0.924 ± 0.034 | 0.915 ± 0.043 | 0.923 ± 0.048 | 0.884 ± 0.049
TSFM (UniProt P43897) | 0.917 ± 0.12 | 0.909 ± 0.095 | 0.883 ± 0.11 | 0.858 ± 0.1 | 0.855 ± 0.091 | 0.879 ± 0.091 | 0.859 ± 0.11 | 0.88 ± 0.11

A second format for some results above.

| Target | NP40-soluble protein abundance (concentration: 0.1mM) | NP40-soluble protein abundance (concentration: 0.5mM) | NP40-soluble protein abundance (concentration: 1mM) | NP40-soluble protein abundance (concentration: 2mM) | NP40-soluble protein abundance (concentration: 4mM) | NP40-soluble protein abundance (concentration: 6mM) | NP40-soluble protein abundance (concentration: 8mM) | NP40-soluble protein abundance (concentration: 10mM) |
| --- | --- | --- | --- | --- | --- | --- | --- | --- |
| RPL4 (UniProt P36578) | 1.03 ± 0.079 | 1.06 ± 0.093 | 1.08 ± 0.16 | 1.05 ± 0.23 | 0.96 ± 0.28 | 0.876 ± 0.23 | 0.692 ± 0.2 | 0.897 ± 0.24 |
| ARL3 (UniProt P36405) | 0.956 ± 0.022 | 0.94 ± 0.045 | 0.891 ± 0.023 | 0.883 ± 0.063 | 0.868 ± 0.024 | 0.882 ± 0.017 | 0.838 ± 0.022 | 0.838 ± 0.036 |
